Reference: patent US6407062
No constants are given. Whether binding was seen depends on the method and setting. In cells and extracts the contact can be indirect. Some binding calls cover weakened binding; strength is not graded here.

Protein sequences, listed by entry. Tags and fused reporters are not part of them. Lines headed by an entry give the natural chain unless they say otherwise; changes in a name come on top.
UniProt P23804: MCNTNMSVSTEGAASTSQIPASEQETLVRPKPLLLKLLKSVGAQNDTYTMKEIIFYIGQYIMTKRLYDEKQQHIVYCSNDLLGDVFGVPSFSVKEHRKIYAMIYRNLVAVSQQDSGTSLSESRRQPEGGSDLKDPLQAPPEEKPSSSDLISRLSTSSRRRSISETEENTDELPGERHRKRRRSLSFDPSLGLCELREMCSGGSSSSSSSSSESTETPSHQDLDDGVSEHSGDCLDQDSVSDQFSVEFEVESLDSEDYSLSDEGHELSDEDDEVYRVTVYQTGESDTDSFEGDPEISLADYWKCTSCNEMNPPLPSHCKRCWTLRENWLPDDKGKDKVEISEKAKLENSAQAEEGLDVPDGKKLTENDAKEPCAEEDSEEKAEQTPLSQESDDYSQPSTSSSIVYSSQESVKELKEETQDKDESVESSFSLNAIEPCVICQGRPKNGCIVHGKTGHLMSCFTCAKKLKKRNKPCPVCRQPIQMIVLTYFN

Columns and labels:
[1] = biological target: Mdm2 (Murine Double Minute 2, full-length) (mouse) (UniProt P23804); experiment: co-immunoprecipitation
[2] = biological target: Mdm2 (Murine Double Minute 2, full-length) (mouse) (UniProt P23804); experiment: co-immunoprecipitation from co-infected Sf9 cells
[3] = biological target: Mdm2 (Murine Double Minute 2, full-length) (mouse) (UniProt P23804); experiment: co-immunoprecipitation from Sf9 cells co-infected with baculoviruses
[4] = biological target: Mdm2 (Murine Double Minute 2, full-length) (mouse) (UniProt P23804); experiment: co-immunoprecipitation from Sf9 cells co-infected with ARF, mdm2 and p53 (22/23/281)

Measured: binding

B1: p19^ARF expressed in Sf9 cells from a baculovirus vector (Example 9) (protein, not shown: small tags and cut ends)
chain: MGRRFLVTVRIQRAGRPLQERVFLVKFVRSRRPRTASCALAFVNMLLRLERILRRGPHRNPGPGDDDGQRSRSSSSAQLRCRFELRGPHYLLPPGARRSAGRLPGHAGGAARVRGSAGCARCLGSPAARLGPRAGTSRHRAIFAFRWVLFVFRWVVFVYRWERRPDRRA
binds: [1] | [2] | [3] | [4]
